Here are results for 6 molecules from PubChem BioAssay AID330 (DTP/NCI, 2004).

The list does not hold the whole screen: it gathers tests that were run many times, whatever their T/C, doses with no T/C, and many T/C values between a quarter and a half above the control. Other doses and runs of a compound stand elsewhere. T/C: endpoint of the treated group in % of that of the vehicle group. Some doses have a count of surviving animals in place of a T/C: the source holds a T/C of zero for them, seemingly a mark for toxic or unscored doses. Some survivor counts are full or nearly so, which does not show that the dose was tolerated: survival well below the control is almost never listed, so the zero probably covers shortened survival too. Counts of survivors are from the toxicity check (mostly the fifth day) where no day follows; animals may have died later. Schedule codes are those of the source, read here as Q, the interval in days (D) or hours (H), X, the number of doses. Where survival is the endpoint, this PubChem deposit counts one and a half times the control or more as active, and values a quarter to a half above the control carry no call in these data; other NCI protocols may use other cut-offs.

The test deals with P388 leukemia ip, CD2F1 mice, survival T/C. Put plainly: NCI In Vivo Anticancer Drug Screen. Data for tumor model P388 Leukemia (intraperitoneal) in CD2F1 (CDF1) mice. To be noted: T/C endpoint: median survival time, higher T/C = longer survival.
The mark [1] stands for this setting: dose: 100.0 mg/kg/injection, schedule: Q01DX009 (ip), vehicle: saline.
[2] abbreviates: dose: 200.0 mg/kg/injection, schedule: Q01DX009 (ip), vehicle: saline.

On to `NC(c1ccccc1)c1cccs1` (configuration not stated), for which, for the setting “dose: 200.0 mg/kg/injection, schedule: Q01DX005 (ip), vehicle: Klucel (hydroxypropylcellulose) (HPC)”, the survivor count was 1 of 5.

For the molecule `c1cc2ccc3ccc[n+]4c3c2[n+](c1)CC4`, the survivor count by setting is: under setting [1], 3 of 6; under setting [2], 0 of 6; (dose: 400.0 mg/kg/injection, schedule: Q01DX009 (ip), vehicle: saline) 0 of 6.

For `CSC(=S)N/N=C\C(C)=N/N=C(N)N`, the survivor count by setting is: (dose: 50.0 mg/kg/injection, schedule: Q01DX009 (ip), vehicle: saline) 1 of 6; under setting [1], 0 of 6; under setting [2], 0 of 6.

Regarding `COc1cccc2c1C(=N)c1c(O)c3c(c(O)c1C2=O)CC(O)(C(=O)CO)CC3OC1CC(N2CCOCC2)C(O)C(C)O1` (configuration not stated), under “dose: 0.5 mg/kg/injection, schedule: Q04DX003 (ip), vehicle: water”, the T/C is 142 % of control. In addition, the survivor count (dose: 2.0 mg/kg/injection, schedule: Q04DX003 (ip), vehicle: water) was 6 of 6 on day 9; the survivor count (dose: 6.25 mg/kg/injection, schedule: Q04DX003 (ip), vehicle: distilled water + Tween-80) was 2 of 6 on day 9; the survivor count (dose: 12.5 mg/kg/injection, schedule: Q04DX003 (ip), vehicle: distilled water + Tween-80) is recorded as 0 of 6 on day 9.

For `CN(C)CC(C)(CN(C)C)C(=O)/C=C/c1ccc(Cl)c(Cl)c1`, the survivor count (dose: 15.0 mg/kg/injection, schedule: Q01DX005 (ip), vehicle: saline with Tween-80) was 6 of 6; the survivor count (dose: 30.0 mg/kg/injection, schedule: Q01DX005 (ip), vehicle: saline with Tween-80) is on record as 2 of 6; the survivor count (dose: 60.0 mg/kg/injection, schedule: Q01DX005 (ip), vehicle: saline with Tween-80) is given as 0 of 6; the survivor count (dose: 120.0 mg/kg/injection, schedule: Q01DX005 (ip), vehicle: saline with Tween-80) is reported as 0 of 6; the survivor count (dose: 240.0 mg/kg/injection, schedule: Q01DX005 (ip), vehicle: saline with Tween-80) is given as 0 of 6.

Take `O=P(O)(O)SP(=O)(O)O.[Zn+2]`: the survivor count (dose: 400.0 mg/kg/injection, schedule: Q04DX003 (ip), vehicle: Klucel (hydroxypropylcellulose) (HPC)) was 4 of 6.
